# Measured values reported in US20160280788A1, “USE OF ANTIBODIES AGAINST ICAM-1 IN THE TREATMENT OF PATIENTS WITH RELAPSED CANCER” (BioInvent International AB, priority 2010, published 2016).
# At least one compound was matched to its structure with a doubt left.
# Tested on: ICAM-1 on RPMI-8226 tumor cells
# Assay: ICAM-1 expression on MM cells isolated from treated mice (flow cytometry)
# Assay type: in vivo, SCID mice
# Settings: disseminated RPMI-8226 model, cells collected at termination
# Procedure: Organs for FACS analysis were collected at scarification of mice, and cells from tissues were prepared by mechanistic dissociation and dispase/collagenase enzymatic digestion (Gibco, France). Cells were stained with anti-human CD38 antibody (PerCP-Cy5, Becton Dickinson), an anti-mouse CD45 (PE, Becton Dickinson) and human ICAM-1 (BI-505 IgG1 AF647, BioInvent) and incubated in the dark for 15 min at room temperature. After the incubation, cells were washed twice and the surface fluorescence of cells was analyzed with a flow cytometer apparatus (LSRII) at the Flow Cytometry Facility of the University of Burgundy.
# The health status and behavior of mice was recorded every day and body weight of mice was recorded twice a week. […] Upon termination, bone marrow, spinal cord, adrenal glands and kidneys were collected and examined for ICAM-1 expression on tumor cells. To distinguish cells of human versus murine origin, an anti-mouse CD45 mAb was used CD45. […] In addition, cells were stained with AF647 conjugated anti ICAM-1 mAb and thereafter analyzed in a FACS LSRII. Bone marrow was mechanically dissociated to a single cell suspension whereas adrenal glands, kidneys and spinal cord cells were prepared using a combination of mechanistic dissociation and dispase/collagenase digestion (Gibco, France). […]
compound,measurement,value
C[C@@H]1C[C@H]2[C@@H]3CCC4=CC(=O)C=C[C@]4(C)[C@@]3(F)[C@@H](O)C[C@]2(C)[C@@]1(O)C(=O)CO [Dexamethasone],ICAM-1 expression on tumor cells collected from treated mice,"unchanged, high levels"
